No constants are given. Whether binding was seen depends on the method and setting.
Target: recombinant Anopheles gambiae SRPN6 (rAgSRPN6), full-length, excluding the signal peptide (Anopheles gambiae)
Assay: AUC; sedimentation velocity; rAgSRPN6 1.0 mg/ml in 20 mM Tris, 250 mM NaCl, pH 8.0; 49,000 rpm, 25°C; monitored at 280 nm; g(s*) fit in DCDT+; both purified

B1: recombinant Anopheles gambiae SRPN6 (rAgSRPN6), full-length, excluding the signal peptide (protein)
chain: QWNRYYTQAPQARYTPMVRTAQRVALRHSFETDGTPAPSTVRPRPPAPPTNAPSQLPALTPDNDAKISQLVVDFMMRISRTLPQQQSRTELFSPLSIITVANLLFLGSGGSTHEEFGKVLTPSSMNWKRMHQRYGNVLANLMSPEPIDSRRDQWRRQTCPRDDDYEDGEGGPAPKSQVIRVANGIFYQKDLPMRQQYVMLARSLYGALIQPIDPQASAASTALINRWVSDVTAGKIRNMLEGPLSPSSSVVIANALYFKAKWKTQFEPLVTRDAPFFPDGLDGPSYRVKMMSMSGCLPFYRVRDSLDTTIVGLPYRDDTSTMYLIQPANSSRTAIRRLQATLTGKMLDSWISQMKLQSTMVRLPKMHLRNSVDLLQSFQKLGFNSILSPAKSDLSNMIDSSSSAGPKPYVNQILHKLDLTIDEEGTEGAAATSALVDRIGSQRQFNGNAPFLIYLRHDATGLPLFYGPIFDPR
B1 was tested, and the binding was “no binding (tested: 1.0 mg/ml)”.
